Results: patent US20090220532A1 (PROYECTO DE BIOMEDICINA CIMA S L, published 2009)
These are yes or no findings as the source states them, for the method shown. Some entries that bind do so weakly or less than the wild type.

By UniProt entry, the sequences of proteins in these tests, tags left out. Where a name states a change or a piece, a line headed by the entry shows the natural chain unless it says otherwise. Residues count along the entry.
UniProt O00206, residues 24-839: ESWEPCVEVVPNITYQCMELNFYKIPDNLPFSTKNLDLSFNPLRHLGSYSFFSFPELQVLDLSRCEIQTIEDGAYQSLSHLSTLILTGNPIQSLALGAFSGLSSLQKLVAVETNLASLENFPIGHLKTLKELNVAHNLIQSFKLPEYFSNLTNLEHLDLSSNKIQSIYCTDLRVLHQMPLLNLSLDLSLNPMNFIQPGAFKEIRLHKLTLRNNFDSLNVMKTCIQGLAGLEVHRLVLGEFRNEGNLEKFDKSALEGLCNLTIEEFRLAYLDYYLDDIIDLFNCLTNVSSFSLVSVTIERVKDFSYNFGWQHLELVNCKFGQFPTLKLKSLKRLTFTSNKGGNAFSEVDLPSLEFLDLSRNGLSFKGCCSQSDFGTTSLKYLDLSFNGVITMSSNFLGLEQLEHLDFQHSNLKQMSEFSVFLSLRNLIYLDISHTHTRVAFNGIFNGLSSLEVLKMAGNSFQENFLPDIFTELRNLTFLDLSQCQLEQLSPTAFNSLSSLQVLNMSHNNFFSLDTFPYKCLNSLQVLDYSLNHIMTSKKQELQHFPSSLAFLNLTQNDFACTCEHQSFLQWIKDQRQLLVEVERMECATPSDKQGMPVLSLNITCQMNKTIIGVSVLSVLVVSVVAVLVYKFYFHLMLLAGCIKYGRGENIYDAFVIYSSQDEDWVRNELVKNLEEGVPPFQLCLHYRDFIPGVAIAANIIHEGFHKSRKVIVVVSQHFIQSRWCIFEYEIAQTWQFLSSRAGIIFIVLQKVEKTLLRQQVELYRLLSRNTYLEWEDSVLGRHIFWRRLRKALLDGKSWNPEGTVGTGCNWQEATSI
UniProt P11276: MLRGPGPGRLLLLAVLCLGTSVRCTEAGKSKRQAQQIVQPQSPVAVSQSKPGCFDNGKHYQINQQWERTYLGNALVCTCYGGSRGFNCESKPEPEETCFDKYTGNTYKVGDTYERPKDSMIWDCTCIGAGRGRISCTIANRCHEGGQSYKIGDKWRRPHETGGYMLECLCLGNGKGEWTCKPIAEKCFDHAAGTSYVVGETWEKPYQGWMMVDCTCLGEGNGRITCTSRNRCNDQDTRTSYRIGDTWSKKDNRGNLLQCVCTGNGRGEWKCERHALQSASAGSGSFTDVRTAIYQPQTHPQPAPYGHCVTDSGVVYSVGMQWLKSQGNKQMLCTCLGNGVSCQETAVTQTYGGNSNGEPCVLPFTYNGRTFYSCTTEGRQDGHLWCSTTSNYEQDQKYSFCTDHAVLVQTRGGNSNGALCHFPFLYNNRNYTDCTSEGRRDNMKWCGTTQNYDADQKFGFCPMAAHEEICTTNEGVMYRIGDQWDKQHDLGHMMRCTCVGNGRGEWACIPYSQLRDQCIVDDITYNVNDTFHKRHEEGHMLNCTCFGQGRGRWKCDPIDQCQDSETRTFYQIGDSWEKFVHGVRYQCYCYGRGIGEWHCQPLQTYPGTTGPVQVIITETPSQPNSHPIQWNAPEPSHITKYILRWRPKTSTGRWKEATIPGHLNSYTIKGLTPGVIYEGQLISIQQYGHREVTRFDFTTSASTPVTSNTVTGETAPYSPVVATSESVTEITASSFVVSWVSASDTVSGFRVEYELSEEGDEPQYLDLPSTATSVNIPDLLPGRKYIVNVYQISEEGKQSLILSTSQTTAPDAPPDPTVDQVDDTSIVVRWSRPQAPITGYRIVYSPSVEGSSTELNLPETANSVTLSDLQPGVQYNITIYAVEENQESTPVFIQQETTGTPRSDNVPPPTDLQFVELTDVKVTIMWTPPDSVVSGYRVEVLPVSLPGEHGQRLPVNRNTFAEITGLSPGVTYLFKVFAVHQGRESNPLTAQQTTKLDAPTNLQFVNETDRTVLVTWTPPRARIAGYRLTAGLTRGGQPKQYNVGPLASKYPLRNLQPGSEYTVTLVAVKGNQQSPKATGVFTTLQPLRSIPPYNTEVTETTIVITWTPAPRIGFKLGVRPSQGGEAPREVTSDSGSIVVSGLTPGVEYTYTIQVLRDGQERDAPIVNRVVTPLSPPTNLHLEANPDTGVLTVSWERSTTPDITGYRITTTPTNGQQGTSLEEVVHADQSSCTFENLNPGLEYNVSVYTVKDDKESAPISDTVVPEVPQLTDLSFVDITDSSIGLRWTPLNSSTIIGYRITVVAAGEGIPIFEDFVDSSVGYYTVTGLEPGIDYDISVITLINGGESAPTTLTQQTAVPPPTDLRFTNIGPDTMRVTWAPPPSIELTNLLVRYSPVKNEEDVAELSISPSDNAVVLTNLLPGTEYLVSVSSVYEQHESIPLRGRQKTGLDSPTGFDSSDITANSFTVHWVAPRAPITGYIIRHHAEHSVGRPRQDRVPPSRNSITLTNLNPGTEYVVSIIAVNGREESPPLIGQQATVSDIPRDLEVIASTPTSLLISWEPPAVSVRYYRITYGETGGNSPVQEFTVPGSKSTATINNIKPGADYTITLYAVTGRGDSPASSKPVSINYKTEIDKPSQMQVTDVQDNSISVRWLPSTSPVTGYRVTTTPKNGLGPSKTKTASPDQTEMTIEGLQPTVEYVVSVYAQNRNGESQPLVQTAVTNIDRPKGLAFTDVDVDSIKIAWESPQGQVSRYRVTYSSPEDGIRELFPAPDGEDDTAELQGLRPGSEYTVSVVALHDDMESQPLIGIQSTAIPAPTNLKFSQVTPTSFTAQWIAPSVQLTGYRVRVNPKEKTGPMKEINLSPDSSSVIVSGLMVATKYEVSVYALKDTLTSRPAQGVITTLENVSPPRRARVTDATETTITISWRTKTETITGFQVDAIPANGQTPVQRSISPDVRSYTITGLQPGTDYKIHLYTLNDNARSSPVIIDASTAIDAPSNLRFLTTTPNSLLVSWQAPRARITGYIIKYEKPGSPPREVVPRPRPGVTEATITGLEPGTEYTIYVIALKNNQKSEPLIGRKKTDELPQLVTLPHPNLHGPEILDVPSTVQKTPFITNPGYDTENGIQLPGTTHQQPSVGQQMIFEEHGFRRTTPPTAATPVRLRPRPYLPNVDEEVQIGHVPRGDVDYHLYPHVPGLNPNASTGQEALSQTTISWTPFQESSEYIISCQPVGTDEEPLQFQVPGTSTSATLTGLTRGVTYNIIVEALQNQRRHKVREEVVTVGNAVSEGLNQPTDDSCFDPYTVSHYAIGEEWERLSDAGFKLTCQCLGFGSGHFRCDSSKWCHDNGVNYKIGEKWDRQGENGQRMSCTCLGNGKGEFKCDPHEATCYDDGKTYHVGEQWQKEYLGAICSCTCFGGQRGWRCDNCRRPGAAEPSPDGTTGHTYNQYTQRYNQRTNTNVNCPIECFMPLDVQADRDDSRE

Biological target: human TLR4 (Toll-like receptor 4) on HEK293 cells expressing human TLR4-MD2-CD14 (human) (UniProt O00206)
Assay: cell adhesion assay; tritiated thymidine labelled HEK hTLR4 or HEK LacZ cells on wells coated with EDA protein

Question: With “EDA protein (recombinant fibronectin Extra domain A, from plasmid pET20bEDA1.2) (from UniProt P11276 1721-1810) (ligand)” as the substance, how does the binding read?
Answer: binds
